Measured values taken from PMC10055685.
Where two headings read alike, the source gives them in different places. No constants are given. Whether binding was seen depends on the method and setting. Binding seen in cells or lysates may run through a third protein. Here binding means that the protein was enriched with, or labelled near, the bait; the list need not be complete. For some assays here: No binding means not detected with the bait. Values belong to the molecule of their own block, whether it stands above or below them.

By UniProt entry, the sequences of proteins in these tests, tags left out. Where a name states a change or a piece, a line headed by the entry shows the natural chain unless it says otherwise. Residues count along the entry.
UniProt P35240: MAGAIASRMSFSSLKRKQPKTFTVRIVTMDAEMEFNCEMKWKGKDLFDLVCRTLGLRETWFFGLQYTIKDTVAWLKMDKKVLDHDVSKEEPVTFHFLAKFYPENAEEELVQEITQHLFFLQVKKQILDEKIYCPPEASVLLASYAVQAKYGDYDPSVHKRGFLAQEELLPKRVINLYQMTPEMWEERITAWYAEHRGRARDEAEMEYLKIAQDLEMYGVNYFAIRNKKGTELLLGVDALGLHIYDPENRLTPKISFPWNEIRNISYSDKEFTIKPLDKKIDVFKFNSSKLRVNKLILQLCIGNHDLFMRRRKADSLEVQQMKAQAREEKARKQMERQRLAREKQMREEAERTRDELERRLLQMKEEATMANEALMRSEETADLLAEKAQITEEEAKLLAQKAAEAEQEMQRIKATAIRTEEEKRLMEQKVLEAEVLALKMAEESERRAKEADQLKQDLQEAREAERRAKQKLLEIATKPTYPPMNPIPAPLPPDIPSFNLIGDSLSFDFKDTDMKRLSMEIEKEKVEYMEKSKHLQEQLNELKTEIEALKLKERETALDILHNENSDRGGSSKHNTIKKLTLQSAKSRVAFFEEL
UniProt Q9Y2J4: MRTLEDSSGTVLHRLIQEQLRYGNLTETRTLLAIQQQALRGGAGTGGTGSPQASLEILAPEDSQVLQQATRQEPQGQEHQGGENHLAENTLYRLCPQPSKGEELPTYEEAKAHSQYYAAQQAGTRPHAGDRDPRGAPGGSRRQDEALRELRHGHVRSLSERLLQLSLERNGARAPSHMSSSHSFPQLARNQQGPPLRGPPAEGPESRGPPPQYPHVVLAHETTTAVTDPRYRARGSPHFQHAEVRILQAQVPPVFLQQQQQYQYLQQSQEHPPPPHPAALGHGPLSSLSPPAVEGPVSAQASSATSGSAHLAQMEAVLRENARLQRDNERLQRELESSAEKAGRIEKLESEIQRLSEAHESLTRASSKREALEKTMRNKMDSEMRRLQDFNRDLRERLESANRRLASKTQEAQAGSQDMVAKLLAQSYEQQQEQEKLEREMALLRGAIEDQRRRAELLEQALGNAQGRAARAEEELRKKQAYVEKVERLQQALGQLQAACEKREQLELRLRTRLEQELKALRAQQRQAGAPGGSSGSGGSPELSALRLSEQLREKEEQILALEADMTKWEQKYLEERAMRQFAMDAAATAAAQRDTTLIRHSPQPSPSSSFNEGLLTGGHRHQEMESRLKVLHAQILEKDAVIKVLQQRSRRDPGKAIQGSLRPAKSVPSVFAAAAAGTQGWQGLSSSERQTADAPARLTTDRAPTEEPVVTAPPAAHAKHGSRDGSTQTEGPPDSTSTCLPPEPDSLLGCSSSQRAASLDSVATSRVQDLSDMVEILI
UniProt Q14126, residues 50-1118: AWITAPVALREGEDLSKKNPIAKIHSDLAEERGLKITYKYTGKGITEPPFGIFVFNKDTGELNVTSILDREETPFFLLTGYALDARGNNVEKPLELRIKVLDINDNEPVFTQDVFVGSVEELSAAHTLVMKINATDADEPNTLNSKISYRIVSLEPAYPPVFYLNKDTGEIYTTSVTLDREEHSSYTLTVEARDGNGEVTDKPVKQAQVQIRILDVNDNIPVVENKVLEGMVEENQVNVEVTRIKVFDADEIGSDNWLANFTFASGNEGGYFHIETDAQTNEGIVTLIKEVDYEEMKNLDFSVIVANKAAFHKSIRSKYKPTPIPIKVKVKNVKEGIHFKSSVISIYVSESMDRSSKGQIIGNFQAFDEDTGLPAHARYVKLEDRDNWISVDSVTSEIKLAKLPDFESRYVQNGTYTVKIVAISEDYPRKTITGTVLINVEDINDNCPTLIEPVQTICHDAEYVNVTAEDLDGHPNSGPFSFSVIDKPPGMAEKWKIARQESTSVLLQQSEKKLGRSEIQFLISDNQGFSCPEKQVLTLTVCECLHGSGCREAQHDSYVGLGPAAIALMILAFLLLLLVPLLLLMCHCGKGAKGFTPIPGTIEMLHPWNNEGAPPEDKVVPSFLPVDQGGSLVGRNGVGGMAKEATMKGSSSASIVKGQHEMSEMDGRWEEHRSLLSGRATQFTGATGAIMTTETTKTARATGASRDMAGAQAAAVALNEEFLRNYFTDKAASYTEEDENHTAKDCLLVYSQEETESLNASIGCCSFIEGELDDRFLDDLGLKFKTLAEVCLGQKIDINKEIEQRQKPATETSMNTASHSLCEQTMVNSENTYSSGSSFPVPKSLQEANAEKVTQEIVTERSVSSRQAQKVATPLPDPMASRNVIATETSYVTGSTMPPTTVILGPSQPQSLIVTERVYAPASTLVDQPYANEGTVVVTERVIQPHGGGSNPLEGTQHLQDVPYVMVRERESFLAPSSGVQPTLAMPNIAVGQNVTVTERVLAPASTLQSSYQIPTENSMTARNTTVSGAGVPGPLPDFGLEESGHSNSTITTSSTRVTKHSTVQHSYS
UniProt P35222: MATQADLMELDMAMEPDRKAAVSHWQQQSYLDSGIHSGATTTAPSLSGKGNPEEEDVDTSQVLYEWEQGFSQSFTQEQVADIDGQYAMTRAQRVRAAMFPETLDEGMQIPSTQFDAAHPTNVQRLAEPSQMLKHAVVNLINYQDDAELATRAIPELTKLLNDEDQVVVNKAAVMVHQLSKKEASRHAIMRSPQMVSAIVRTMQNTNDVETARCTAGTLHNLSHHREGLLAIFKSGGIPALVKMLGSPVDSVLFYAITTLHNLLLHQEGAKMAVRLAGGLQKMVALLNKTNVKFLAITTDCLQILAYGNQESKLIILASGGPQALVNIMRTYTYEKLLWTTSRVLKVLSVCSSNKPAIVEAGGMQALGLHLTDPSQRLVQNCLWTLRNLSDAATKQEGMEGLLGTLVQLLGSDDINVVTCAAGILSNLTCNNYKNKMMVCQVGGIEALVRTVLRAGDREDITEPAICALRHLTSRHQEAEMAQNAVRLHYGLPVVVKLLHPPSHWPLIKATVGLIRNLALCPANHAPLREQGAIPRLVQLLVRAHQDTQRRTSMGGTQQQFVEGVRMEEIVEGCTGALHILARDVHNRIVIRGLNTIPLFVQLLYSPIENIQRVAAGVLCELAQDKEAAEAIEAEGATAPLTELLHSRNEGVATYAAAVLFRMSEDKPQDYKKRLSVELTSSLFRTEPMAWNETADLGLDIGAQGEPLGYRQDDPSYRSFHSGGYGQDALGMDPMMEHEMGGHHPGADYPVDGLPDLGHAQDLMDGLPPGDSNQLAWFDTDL

Experiments:
Experiment in all cases: proximity labelling; APEX2 fused to Merlin in M10G cells; 0.1mg/ml doxycycline 24 hours; 0.5mM biotin-phenol 30 minutes at 37°C, 1mM H2O2 on ice for 30 seconds; streptavidin pulldown and proteomic mass spectrometry (n=3/condition)
[1] = target: Merlin^WT with C-terminal FLAG and APEX2 tags (Merlin^FLAG-APEX2, wildtype) (human) (UniProt P35240)
[2] = target: Merlin^A211D with C-terminal FLAG and APEX2 tags (human) (UniProt P35240)
[3] = target: Merlin^L46R with C-terminal FLAG and APEX2 tags (human) (UniProt P35240)
[4] = target: Merlin^S13A (unphosphorylatable) FLAG-APEX2 construct (human) (UniProt P35240)
[5] = target: Merlin^S13D (phospho-mimetic) FLAG-APEX2 construct (human) (UniProt P35240)
[6] = target: Merlin^WT with C-terminal FLAG and APEX2 tags (Merlin^FLAG-APEX2, wildtype) (human) (UniProt P35240); remark: listed apart in the source

binding [1]: binds
Molecule: AMOTL2 (from UniProt Q9Y2J4 1-779)

binding [1]: binds
Molecule: DSG2 (from UniProt Q14126 50-1118)

binding [2]: binds
binding [3]: no binding
binding [4]: no binding
binding [5]: binds
binding [1]: binds
Molecule: β-catenin (from UniProt P35222 1-781)

binding [6]: binds
B1: AMOTL1 (protein, UniProt Q8IY63 1-956)
chain: MWRAKLRRGTCEPAVKGSPSACYSPSSPVQVLEDSTYFSPDFQLYSGRHETSALTVEATSSIREKVVEDPLCNFHSPNFLRISEVEMRGSEDAAAGTVLQRLIQEQLRYGTPTENMNLLAIQHQATGSAGPAHPTNNFSSTENLTQEDPQMVYQSARQEPQGQEHQVDNTVMEKQVRSTQPQQNNEELPTYEEAKAQSQFFRGQQQQQQQQGAVGHGYYMAGGTSQKSRTEGRPTVNRANSGQAHKDEALKELKQGHVRSLSERIMQLSLERNGAKQHLPGSGNGKGFKVGGGPSPAQPAGKVLDPRGPPPEYPFKTKQMMSPVSKTQEHGLFYGDQHPGMLHEMVKPYPAPQPVRTDVAVLRYQPPPEYGVTSRPCQLPFPSTMQQHSPMSSQTSSASGPLHSVSLPLPLPMALGAPQPPPAASPSQQLGPDAFAIVERAQQMVEILTEENRVLHQELQGYYDNADKLHKFEKELQRISEAYESLVKSTTKRESLDKAMRNKLEGEIRRLHDFNRDLRDRLETANRQLSSREYEGHEDKAAEGHYASQNKEFLKEKEKLEMELAAVRTASEDHRRHIEILDQALSNAQARVIKLEEELREKQAYVEKVEKLQQALTQLQSACEKREQMERRLRTWLERELDALRTQQKHGNGQPANMPEYNAPALLELVREKEERILALEADMTKWEQKYLEESTIRHFAMNAAATAAAERDTTIINHSRNGSYGESSLEAHIWQEEEEVVQANRRCQDMEYTIKNLHAKIIEKDAMIKVLQQRSRKDAGKTDSSSLRPARSVPSIAAATGTHSRQTSLTSSQLAEEKKEEKTWKGSIGLLLGKEHHEHASAPLLPPPPTSALSSIASTTAASSAHAKTGSKDSSTQTDKSAELFWPSMASLPSRGRLSTTPAHSPVLKHPAAKGTAEKLENSPGHGKSPDHRGRVSSLLHKPEFPDGEMMEVLI
